This passage reports binding results from article PMC5641076.

Chains of the proteins cited; added tags and fusions are not shown.
UniProt P06493: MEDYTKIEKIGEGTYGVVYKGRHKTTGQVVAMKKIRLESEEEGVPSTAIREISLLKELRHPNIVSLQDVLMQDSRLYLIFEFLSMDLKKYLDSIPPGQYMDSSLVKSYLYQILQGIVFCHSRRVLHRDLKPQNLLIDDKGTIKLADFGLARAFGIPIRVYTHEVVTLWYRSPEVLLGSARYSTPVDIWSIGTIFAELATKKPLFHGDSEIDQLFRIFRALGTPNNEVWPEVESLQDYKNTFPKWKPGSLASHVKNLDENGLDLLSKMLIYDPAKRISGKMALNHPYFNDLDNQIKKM

Results are given in words; binding and its absence hold for the method and conditions named. Binding seen in cells or lysates may run through a third protein. Some binding calls cover weakened binding; strength is not graded here. Where a sequence is shown, tags or fusion partners need not be part of it.

In the assay the target is Flag-CDK1 (human) (UniProt P06493). The assay is described as follows: co-IP; pcDNA-Flag-CDK1 and pcDNA-Myc-iASPP co-transfected into HCT116 and LoVo cells; IP with Flag monoclonal antibodies, Western blot with Flag and Myc antibodies; lysates treated with DNase and RNase.

B1: Myc-iASPP (protein, UniProt Q8WUF5 1-828)
chain: MDSEAFQSARDFLDMNFQSLAMKHMDLKQMELDTAAAKVDELTKQLESLWSDSPAPPGPQAGPPSRPPRYSSSSIPEPFGSRGSPRKAATDGADTPFGRSESAPTLHPYSPLSPKGRPSSPRTPLYLQPDAYGSLDRATSPRPRAFDGAGSSLGRAPSPRPGPGPLRQQGPPTPFDFLGRAGSPRGSPLAEGPQAFFPERGPSPRPPATAYDAPASAFGSSLLGSGGSAFAPPLRAQDDLTLRRRPPKAWNESDLDVAYEKKPSQTASYERLDVFARPASPSLQLLPWRESSLDGLGGTGKDNLTSATLPRNYKVSPLASDRRSDAGSYRRSLGSAGPSGTLPRSWQPVSRIPMPPSSPQPRGAPRQRPIPLSMIFKLQNAFWEHGASRAMLPGSPLFTRAPPPKLQPQPQPQPQPQSQPQPQLPPQPQTQPQTPTPAPQHPQQTWPPVNEGPPKPPTELEPEPEIEGLLTPVLEAGDVDEGPVARPLSPTRLQPALPPEAQSVPELEEVARVLAEIPRPLKRRGSMEQAPAVALPPTHKKQYQQIISRLFHRHGGPGPGGPEPELSPITEGSEARAGPPAPAPPAPIPPPAPSQSSPPEQPQSMEMRSVLRKAGSPRKARRARLNPLVLLLDAALTGELEVVQQAVKEMNDPSQPNEEGITALHNAICGANYSIVDFLITAGANVNSPDSHGWTPLHCAASCNDTVICMALVQHGAAIFATTLSDGATAFEKCDPYREGYADCATYLADVEQSMGLMNSGAVYALWDYSAEFGDELSFREGESVTVLRRDGPEETDWWWAALHGQEGYVPRNYFGLFPRVKPQRSKV
Take B1: the binding entry is “binds”.
